Results are given in words; binding and its absence hold for the method and conditions named.
Biological target: Ferredoxin I (SynPcc7942_1499) from Synechococcus elongatus PCC7942 (Synechococcus elongatus PCC7942) (UniProt P0A3D2)
Assay: AUC; Fd after removal of the N-terminal His-tag with thrombin; estimated molecular weight about 11.8 kDa; both purified

Chains of the proteins cited; added tags and fusions are not shown. Lines headed by an entry give the natural chain unless they say otherwise; changes in a name come on top.
UniProt P0A3D2: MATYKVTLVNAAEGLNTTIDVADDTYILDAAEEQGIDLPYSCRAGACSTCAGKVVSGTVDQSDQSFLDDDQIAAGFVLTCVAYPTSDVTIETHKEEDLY

binding: no binding
Substance: Ferredoxin I (SynPcc7942_1499) from Synechococcus elongatus PCC7942 (from UniProt P0A3D2 1-99)

Reference: publication PMC3691600, “Conversion of fatty aldehydes into alk (a/e)nes by in vitro reconstituted cyanobacterial aldehyde-deformylating oxygenase with the cognate electron transfer system” (Biotechnology for Biofuels, 2013)
